Where “and” joins values, the source holds several entries; their conditions need not be identical. Equal values may be shown once. The campaign covered roughly 400,000 compounds. About 13,000 (3.2%) were called active. Inconclusive means that the source gave no clear call. Such entries were picked first, then a sample of the others. Calls come from the whole dose curve; as a rule, active = well fitted cell-killing curve with a large enough effect; inconclusive = small, poorly fitted or top-dose-only effect, or effect the other way; inactive = flat fitted curve, though single readings scatter. Potencies of inconclusive entries are doubtful fits and often do not repeat.
experiment: qHTS assay for MDR1-selective chemotherapeutics: Primary screen using the drug-selected MDR subline cells KB-V1; details: KB-V1 MDR cells viability, CellTiter-Glo, 72 h; activity change, negative = cytotoxicity: at 46.1 µM (top of the series); note: nearly all actives have a fitted effect of over 60% in size
Method in brief: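 Compound-treated KB-V1 multidrug-resistant cells, 72 h, 37 degrees C; viability by CellTiter-Glo. Fitted qHTS curves give the values.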
% is set by controls: 0 for no effect and ±100 for the full control effect; potency is the fitted concentration of half-maximal effect.

SMILES | Potency | activity change, negative = cytotoxicity
N/C(=N\OC(=O)COc1ccc(Br)cc1)c1cccnc1 | inconclusive: 20.6 µM [cytotoxic, single point] | –
CCOc1ccc(C(=O)CCC(=O)N(CC)CC(=O)NCc2ccc(Cl)cc2)cc1 | inconclusive: 6.51 µM [cytotoxic, partial curve] | –
C/C(=N\NC(=O)C1COc2ccccc2O1)c1ccc(N2CCOCC2)cc1 (centres undefined) | inconclusive: 16.4 µM [cytotoxic, single point] | –
O=C1S/C(=C\c2ccc(N3CCOCC3)o2)C(=O)N1c1ccccc1 | inconclusive: 29.1 µM [cytotoxic, single point] | –
Cc1cc(C(=O)NCc2cc(F)cc3c2OCOC3)nn1C | inactive | –
CC(C)CCn1c(Oc2ccccc2Cl)nc2c1c(=O)n(C)c(=O)n2C | inconclusive: 32.6 µM [cytotoxic, single point] | –
COC(=O)c1ccccc1NC(=O)CSc1nc2ccccc2nc1Cc1ccccc1OC | inconclusive: 0.651 µM [cytotoxic, full curve, poor fit] | –
O=C(O)/C=C/C(=O)c1ccc2c(c1)NC(=O)CO2 | inconclusive: 13 µM [rising, partial curve, poor fit] | –
O=C(c1ccco1)N1CCN(c2nnc(-c3ccccc3)c3ccccc23)CC1 | active: 16.4 µM | –
CCOC(=O)c1c(-c2ccc(Br)cc2)csc1NC(=O)c1ccc(F)cc1 | inconclusive: 16.4 µM [rising, partial curve, poor fit] | –
CSc1nc(N(C)NC(=O)c2cccc(C)c2)c2ccccc2n1 | active: 0.206 µM | –
CCOc1ccc(NC(=S)NN2C(C)CCCC2C)cc1 (centres undefined) | inconclusive: 10.3 µM [cytotoxic, partial curve] | –
CC(C)OCCCNC(=O)c1ccc2c(c1)NC(=O)c1ccccc1S2 | inconclusive: 23.1 µM [cytotoxic, single point] and inconclusive: 16.4 µM [cytotoxic, single point] | –
COc1ccc(-c2ccc(CN3C(CC(C)C)C(=O)N(Cc4cn(CC5CCCCC5)nn4)CCS3(=O)=O)cc2)cn1 (centres undefined) | inconclusive: 29.1 µM [cytotoxic, single point] | –
O=C(CSc1nc(=O)[nH]c2c1CCCC2)Nc1cc(C(F)(F)F)cc(C(F)(F)F)c1 | inconclusive: 25.9 µM [cytotoxic, single point] | –
CCCCCc1c(-c2ccccc2)ncn1CCc1ccccc1OC | active: 14.6 µM | –
O=C(Nc1cc(-c2nc3ccccc3o2)ccc1Cl)c1ccc(N2CCCCC2)c([N+](=O)[O-])c1 | inactive | –
CCCCOc1ccc(C(=O)NCC(=O)NCc2ccccn2)cc1 | – | inconclusive: -8.62%
COc1cccc(C(=O)N=c2sc3c(C)ccc(OC)c3n2C)c1 | inactive | –
C=C1C=C(C(F)F)n2ncc(C(=O)N3CCN(c4ccccn4)CC3)c2N1 | inactive | –
Cc1nc2cc(NC(=O)CCS(=O)(=O)c3ccccc3)ccc2s1 | inconclusive: 18.4 µM [rising, single point] | –
Cc1cccc(C)c1NC(=O)C1(C)CSCC(=O)N1CCc1ccccc1 (centres undefined) | inconclusive: 18.4 µM [cytotoxic, partial curve, poor fit] | –

SMILES | Potency | activity change, negative = cytotoxicity
CCOc1ccc(Nc2oc(-c3ccc(Cl)cc3)nc2C#N)cc1 | inconclusive: 3.66 µM [cytotoxic, full curve, poor fit] | –
Cc1cc2c(N=O)c(NO)ccc2[nH]1 | active: 4.11 µM | –
CCOP(=O)(OCC)C(Nc1ccccc1)c1ccc2c(c1)OCO2 (centres undefined) | inconclusive: 14.6 µM [cytotoxic, partial curve, poor fit] | –
COc1cc(NC(=O)C2CSC3(C)CCC(=O)N23)c(OC)cc1Cl (centres undefined) | inconclusive: 16.4 µM [cytotoxic, single point] | –
O=C(c1cc(COc2ccccc2)on1)N1CCCC(OCc2cccnc2)C1 (centres undefined) | inconclusive: 13 µM [cytotoxic, partial curve, poor fit] | –
CN(C(=O)c1cc2nc(-c3ccco3)cc(C(F)(F)F)n2n1)c1ccc(OC(F)(F)Cl)cc1 | inactive | –
CC1CCC2(CC1)NC(=O)N(CC(=O)N1CCN(S(=O)(=O)c3ccccc3)CC1)C2=O (centres undefined) | inactive | –
CCOC(=O)C(C)Oc1cccc2c(=O)n(CC(=O)NCc3ccccc3)ccc12 (centres undefined) | active: 2.06 µM | –
Cc1ccsc1C(=O)N1CCCC(CCC(=O)N2CCN(c3ccccn3)CC2)C1 (centres undefined) | inconclusive: 23.1 µM [cytotoxic, single point] | –
Cc1c2c(cc3c1[nH]c1ccccc13)C=NCC2 | inconclusive: 25.9 µM [cytotoxic, single point] | –
CCN(Cc1ccncc1)C(=O)C(CO)c1ccccc1 (centres undefined) | inactive | –
CCOC(=O)C(=CNc1ccccc1N1CCOCC1)C(=O)OCC | inconclusive: 8.2 µM [cytotoxic, partial curve, poor fit] | –
Cc1ccc(NC(=O)Cn2cc(S(=O)(=O)c3ccc(C)cc3)c(=O)c3cc4c(cc32)OCO4)cc1 | inactive | –
O=C(NCCNS(=O)(=O)c1ccccc1Cl)c1cc(OCC(F)(F)F)ccc1OCC(F)(F)F | inconclusive: 14.6 µM [cytotoxic, partial curve, poor fit] | –
CCc1ccccc1N(C(=O)c1snc(C(N)=O)c1N)C(C(=O)NCC1CCCO1)c1ccc(C)o1 (centres undefined) | inconclusive: 23.1 µM [cytotoxic, single point] | –
Cc1ccc(-c2nc(SCCOc3ccccc3C)n3[nH]c(=O)cc3n2)cc1 | inactive | –
CN(C)C(=O)c1ccc(NC(=O)c2cccc(S(=O)(=O)N3CCCCCC3)c2)cc1 | inconclusive: 29.1 µM [cytotoxic, single point] | –
CC(=O)Nc1cc(OC(C)=O)c2nonc2c1OC(C)=O | inactive | –
CCC1(C)Cc2ccccc2-c2nc(NCCO)[nH]c(=O)c21 (centres undefined) | inconclusive: 29.1 µM [rising, single point] | –
COc1ccc(CCN2CCC(Nc3nc4ccccc4n3Cc3ccc(F)cc3)CC2)cc1 | active: 20.6 µM | –
CC1=Nc2cc(C(=O)NCC3CCCO3)ccc2Sc2ccc(Br)cc21 (centres undefined) | active: 6.51 µM | –
C[C@@H]([C@@H](O)c1ccccc1)N(C)C(=O)C(N)Cc1ccccc1 (some centres undefined) | inconclusive: 5.8 µM [cytotoxic, full curve] | –

Some of these compounds in order of SMILES length, rising.
SMILES | Potency | activity change, negative = cytotoxicity
Cc1cc(C(=O)NCc2cc(F)cc3c2OCOC3)nn1C | inactive | –
CCOC(=O)c1c(-c2ccc(Br)cc2)csc1NC(=O)c1ccc(F)cc1 | inconclusive: 16.4 µM [rising, partial curve, poor fit] | –
CN(C)C(=O)c1ccc(NC(=O)c2cccc(S(=O)(=O)N3CCCCCC3)c2)cc1 | inconclusive: 29.1 µM [cytotoxic, single point] | –

— PubChem BioAssay AID1347076 (National Center for Advancing Translational Sciences (NCATS), 2019)
